{
  "source": "PubChem BioAssay AID1347131",
  "about": "(National Center for Advancing Translational Sciences (NCATS), 2019)",
  "note": "Out of some 410,000 compounds screened, about 2,000 (0.49%) were called active. The inconclusive results got no clear call from the source; some entries with a clear call stand among them for comparison. Calls come from the whole dose curve; tested in HEK293 reporter line. Where the call is inconclusive, the potency comes from a doubtful curve fit. Potency is the fitted concentration of half-maximal effect.",
  "data": [
    {"assay": "qHTS Assay for Foot and Mouth Disease Virus Antivirals: Primary Screen against the MLPCN compound library; note: nearly all actives have a fitted effect of over 55% in size", "conditions": "FMDV antiviral cell-based qHTS; activity, negative = inhibition: at 57.9 µM (top of the series)", "values": [
      {"smiles": "CCn1c2ccccc2c2nnc(SCC(=O)NC(CC(C)C)C(=O)OC)nc21", "note": "(centres undefined)", "Potency": "inconclusive: 14.1 µM [inhibitor, partial curve, poor fit]"},
      {"smiles": "O=C(c1ccc(Cl)cc1)N1CCCCC(Sc2nnc(-c3ccc4c(c3)OCO4)o2)C1=O", "note": "(centres undefined)", "Potency": "inconclusive: 10 µM [inhibitor, partial curve, poor fit]"},
      {"smiles": "Nc1nnnn1/N=C/C(Br)=C/c1ccccc1", "Potency": "inconclusive: 14.1 µM [inhibitor, partial curve, poor fit]"},
      {"smiles": "O=C1/C(=C/c2ccccc2O)SC(=S)N1Cc1cccnc1", "Potency": "inconclusive: 31.6 µM [inhibitor, partial curve, poor fit]"},
      {"smiles": "CC1CC[C@@]2(OC1)OC1C(O)C3C4CC[C@H]5CC(O[C@@H]6O[C@@H](CO)[C@H](OC7OC(CO)C(O)C(OC8OCC(O)C(O)[C@H]8O)[C@@H]7O[C@@H]7OC(CO)[C@H](O)[C@@H](O[C@@H]8OC(CO)C(O)C(O)C8O)C7O)C(O)C6O)C(O)C[C@]5(C)C4CC[C@]3(C)C1C2C", "note": "(some centres undefined)", "Potency": "inconclusive: 35.5 µM [inhibitor, partial curve, poor fit]"},
      {"smiles": "Cc1ccc(O)c(C(=O)C=Cc2ccccc2)c1", "Potency": "inconclusive: 35.5 µM [inhibitor, single point]"},
      {"smiles": "Cc1cccc(N2CCN(c3ncnc4c3nc3n4CCCCC3)CC2C)c1", "note": "(centres undefined)", "Potency": "inconclusive: 2.24 µM [inhibitor, full curve, poor fit]"},
      {"smiles": "COc1ccc(CCNc2nc3cc(OC)c(OC)cc3c3nc(-c4ccccc4)nn23)cc1OC", "Potency": "inconclusive: 4.47 µM [inhibitor, partial curve, poor fit]"},
      {"smiles": "CCOC(=O)c1ccc(NC(=O)c2nc[nH]c2C(=O)NC2CCN(C(=O)OC(C)(C)C)CC2)cc1", "Potency": "inconclusive: 20 µM [inhibitor, partial curve, poor fit]"},
      {"smiles": "Cc1ccc(N=Nc2ccc(O)cc2)c(Br)c1", "Potency": "inconclusive: 12.6 µM [inhibitor, partial curve, poor fit]"},
      {"smiles": "CCOC(=O)c1c2c(n(C)c1C)C(=O)C(=O)c1ccc(Br)cc1-2", "Potency": "inconclusive: 8.91 µM [inhibitor, full curve, poor fit]"},
      {"smiles": "O=C(CCCc1nc2ccccc2s1)N1CCN(S(=O)(=O)c2cccs2)CC1", "Potency": "active: 25.1 µM"},
      {"smiles": "NC(=S)NN=C1c2cc(Cl)ccc2-c2c1cc(Cl)cc2[N+](=O)[O-]", "Potency": "inconclusive: 20 µM [inhibitor, partial curve, poor fit]"},
      {"smiles": "COc1ccccc1CNC(=O)c1nn(-c2ccc(C)cc2)c(=O)c2c1c1ccccc1n2C", "Potency": "inconclusive: 3.98 µM [inhibitor, full curve]"},
      {"smiles": "Cc1cc(N2CCN(C(=O)Oc3ccc([N+](=O)[O-])cc3)CC2)c2ccccc2n1", "Potency": "inconclusive: 25.1 µM [inhibitor, partial curve, poor fit]"},
      {"smiles": "CNc1ccc(/C=C2\\CSc3ccccc3C2=O)cc1[N+](=O)[O-]", "Potency": "inconclusive: 39.8 µM [inhibitor, single point]"},
      {"smiles": "COc1ccccc1CN1CCN(Cc2ccco2)CC1", "Potency": "inconclusive: 2.82 µM [inhibitor, partial curve, poor fit]"},
      {"smiles": "c1ccc2c(c1)c1ccccc1n1c(-c3ccc4c(c3)OCO4)nnc21", "Potency": "inconclusive: 25.1 µM [inhibitor, partial curve, poor fit]"},
      {"smiles": "CCOC1=C2CN(S(=O)(=O)c3ccc(C)cc3)[C@H](c3ccccc3)C[C@@H]2N(S(=O)(=O)c2ccc(C)cc2)[C@H](c2ccccc2)C1", "activity, negative = inhibition": "inactive: -33%"},
      {"smiles": "O=C(COc1ccc(Br)cc1CO)Nc1ccc(S(=O)(=O)N2CCCC2)cc1", "Potency": "inconclusive: 35.5 µM [inhibitor, single point]"},
      {"smiles": "CCOc1ccc(-n2c(O)c(/C=N/Nc3nc(C)cc(C)n3)c3ccccc3c2=O)cc1", "Potency": "inconclusive: 3.55 µM [inhibitor, partial curve, poor fit]"},
      {"smiles": "CC1(C)CC(=O)C(C=NCCN2CCN(C(=O)C34CC5CC(CC(C5)C3)C4)CC2)=C(O)C1", "Potency": "inconclusive: 22.4 µM [inhibitor, partial curve, poor fit]"},
      {"smiles": "COc1ccc(CCCNC(=O)C2Cc3c(-c4cccc(NC(C)=O)c4)ccnc3O2)cc1", "note": "(centres undefined)", "Potency": "inconclusive: 35.5 µM [inhibitor, single point]"},
      {"smiles": "COc1ccc(CC(=O)Nc2nc(-c3ccc(F)c(F)c3)cs2)cc1OC", "Potency": "inconclusive: 17.8 µM [inhibitor, partial curve, poor fit]"},
      {"smiles": "CNC(=O)Oc1cccc(-c2cn3cc(Cl)ccc3n2)c1", "Potency": "inconclusive: 10 µM [inhibitor, partial curve, poor fit]"},
      {"smiles": "COc1ccccc1N1CCN(CCC(=O)Nc2cccc(F)c2)CC1", "Potency": "inconclusive: 1.41 µM [inhibitor, partial curve, poor fit]"},
      {"smiles": "CCOC(=O)C1=C(C)Nc2ccccc2N=C1NC(=O)c1oc2ccccc2c1COC", "activity, negative = inhibition": "inactive: -41%"},
      {"smiles": "Cc1cc2ncc(-c3cccs3)nc2cc1C", "Potency": "active: 11.2 µM"},
      {"smiles": "CCCN1C(=O)/C(=C/c2ccc(OCc3ccc(C(=O)O)cc3)c(OC)c2)NC1=S", "Potency": "inconclusive: 7.94 µM [inhibitor, partial curve, poor fit]"},
      {"smiles": "Cc1ccc(S(=O)(=O)N(C)CCCC(=O)N2CCN(c3ccccn3)CC2)cc1", "Potency": "active: 22.4 µM"},
      {"smiles": "CCOC(=O)c1c(C)nn(-c2ccc(NC(=O)c3c(C)noc3C)cc2)c1C", "Potency": "inconclusive: 15.8 µM [inhibitor, single point]"},
      {"smiles": "N#CC1=C(N)Nc2nc3ccccc3n2C1c1ccc(F)cc1", "note": "(centres undefined)", "activity, negative = inhibition": "inactive: -40.9%"},
      {"smiles": "Cc1ccc(-n2ncc3c(N4CCC(C)CC4)ncnc32)cc1C", "Potency": "inconclusive: 20 µM [inhibitor, single point]"},
      {"smiles": "Cc1nn(CC(=O)N2CCC(C)CC2)c(=O)c2nn(-c3ccccc3)c(C)c12", "Potency": "inconclusive: 15.8 µM [inhibitor, partial curve]"},
      {"smiles": "N#C/C(=C\\c1ccc(OCc2ccc(C(=O)O)cc2)cc1)C(=O)N1CCOCC1", "Potency": "active: 10 µM"},
      {"smiles": "CCNc1nc2c(c(=O)n(C)c(=O)n2C)n1CC(O)COc1ccccc1", "note": "(centres undefined)", "Potency": "inconclusive: 22.4 µM [inhibitor, partial curve, poor fit]"},
      {"smiles": "CN(C)c1nc2ccccc2c(N)c1-c1ccccc1", "Potency": "inconclusive: 7.94 µM [inhibitor, full curve]"},
      {"smiles": "CSC1=N/C(=C\\c2ccccc2C)C(=O)S1", "Potency": "inconclusive: 10 µM [inhibitor, partial curve]"},
      {"smiles": "CCCOc1ccccc1C1CC(=O)Nc2cc3c(cc21)OCCO3", "note": "(centres undefined)", "Potency": "inconclusive: 22.4 µM [inhibitor, partial curve, poor fit]"},
      {"smiles": "Cc1ccc(C(=O)Nc2cccc(C(=O)O)c2)cc1", "Potency": "inconclusive: 2 µM [inhibitor, full curve, poor fit]"},
      {"smiles": "COC(=O)CNC(c1ccccc1)c1cc(C)ccc1NC(=O)c1cccc(Cl)c1", "note": "(centres undefined)", "activity, negative = inhibition": "inconclusive: -30.1% [inhibitor]"},
      {"smiles": "CCc1nc(Nc2cccc(O)c2)c2oc3ccccc3c2n1", "Potency": "inconclusive: 22.4 µM [inhibitor, partial curve, poor fit]"},
      {"smiles": "CCCNNC(=O)C(O)(c1ccccc1)c1ccccc1", "activity, negative = inhibition": "inactive: -31.8%"},
      {"smiles": "O=C(Nc1ccc(-c2nc3ccccc3s2)cc1)C1=COCCO1", "Potency": "inconclusive: 10 µM [inhibitor, partial curve, poor fit]"},
      {"smiles": "COc1cc(OC)cc(C(=O)Nc2nnc(SCC(=O)NCc3ccco3)s2)c1", "activity, negative = inhibition": "inactive: -86.1%"},
      {"smiles": "O=C(Nc1ccccc1)Nc1cc(OCC(F)(F)F)cc(OCC(F)(F)F)c1", "Potency": "inconclusive: 12.6 µM [inhibitor, partial curve]"},
      {"smiles": "CCN(CC)C(=O)C1CCCN(Cc2cccc(Oc3ccccc3)c2)C1", "note": "(centres undefined)", "Potency": "inconclusive: 10 µM [inhibitor, partial curve]"},
      {"smiles": "c1ccc(-c2noc(-c3ccc4ccccc4c3)n2)nc1", "Potency": "inconclusive: 3.98 µM [inhibitor, full curve, poor fit]"},
      {"smiles": "COC(=O)C1=C(C(=O)OC)[C@@H]2N(C)c3ccccc3[C@@]23C[C@@H](C(=O)OC)N(C(=O)CC(C)C)C3=N1", "Potency": "inconclusive: 11.2 µM [inhibitor, partial curve, poor fit]"},
      {"smiles": "Nc1ccc(Br)c[n+]1Cc1cccc2cccnc12", "Potency": "inconclusive: 3.55 µM [inhibitor, full curve]"},
      {"smiles": "CCc1nc2sc3c(Cl)ncnc3c2c2c1CCCC2", "Potency": "inconclusive: 1.58 µM [inhibitor, full curve]"},
      {"smiles": "Cc1cc(NC(=O)CCl)nn1C", "Potency": "inconclusive: 35.5 µM [inhibitor, partial curve, poor fit]"},
      {"smiles": "Cc1sc2ncn(CCn3cnc4sc(C)c(C)c4c3=O)c(=O)c2c1C", "Potency": "inconclusive: 20 µM [inhibitor, partial curve, poor fit]"},
      {"smiles": "Cc1nc2sccn2c1CN1CCOc2ccc(CN3CCN(c4ccc(F)cc4)CC3)cc2C1", "Potency": "inconclusive: 8.91 µM [inhibitor, partial curve, poor fit]"},
      {"smiles": "c1csc(CNc2ccc3c(c2)OCCO3)c1", "activity, negative = inhibition": "inactive: -50.6%"},
      {"smiles": "Cc1ccc(C(=O)O/N=C(\\N)c2ccccn2)cc1C", "Potency": "inconclusive: 8.91 µM [inhibitor, partial curve, poor fit]"},
      {"smiles": "COc1ccc(-c2cc(C(=O)N3CCOCC3)no2)cc1", "Potency": "inconclusive: 17.8 µM [inhibitor, single point]"},
      {"smiles": "COc1cc(C=O)ccc1OCCCOc1ccccc1C(=O)O", "Potency": "inconclusive: 8.91 µM [inhibitor, partial curve, poor fit]"},
      {"smiles": "O=C(C1CCC(CNc2nc(=S)[nH]c3ccccc23)CC1)N1CCN(c2ccc(F)cc2)CC1", "note": "(centres undefined)", "Potency": "inconclusive: 17.8 µM [inhibitor, partial curve, poor fit]"}
    ]}
  ]
}
